Values joined by “and” are separate entries in the source; they are usually repeats but may differ in a detail not shown here. Equal entries are not always repeated. About 770 (0.35%) of roughly 220,000 compounds were called active. Inconclusive results, whose numbers are uncertain, are shown with a selection of clear calls. Cut-off read from the data, not from the text of the source: active = binding response below about 49% or above about 150%; inconclusive = no clear call, values can overlap the other calls; inactive = in between.
Target: Guanine nucleotide-binding protein G(o) subunit alpha (Homo sapiens) (UniProt P09471)
Assay: RGS7-Galphao binding modulators, primary screen, biochemical, multiplexed bead flow cytometry (AID 1439);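 note: fluorescent Galphao held in activated GDP-AlF4 state binding bead-coupled RGS7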
Details: at 10 µM, actives lie on both sides

Sequences of proteins named here, by UniProt entry; tags and fusion partners are left off.
UniProt P09471, whole entry, looked up: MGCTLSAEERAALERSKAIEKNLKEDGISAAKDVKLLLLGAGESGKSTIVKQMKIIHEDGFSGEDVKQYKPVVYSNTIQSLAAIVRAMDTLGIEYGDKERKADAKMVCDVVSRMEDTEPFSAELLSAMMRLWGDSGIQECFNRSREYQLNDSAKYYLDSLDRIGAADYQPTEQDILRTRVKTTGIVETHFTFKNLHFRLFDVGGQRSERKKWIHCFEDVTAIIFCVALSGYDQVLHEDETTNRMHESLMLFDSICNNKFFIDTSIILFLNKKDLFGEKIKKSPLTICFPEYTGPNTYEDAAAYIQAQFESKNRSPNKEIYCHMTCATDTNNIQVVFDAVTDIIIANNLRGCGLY

Structure (SMILES)	binding response (% of control)
CC(=O)Nc1nc2c(C)c(Cl)ccc2s1	inconclusive: 84.6%
CCCCNC(=O)c1cc2c(C)cc(C)cc2[nH]1	inconclusive: 36.6%
O=S(=O)(NC1CCN(Cc2ccccc2)CC1)c1ccc(Cl)cc1	inconclusive: 185%
Cc1cc(C)nc(-n2nc(C)cc2NC(=O)c2ccc(S(=O)(=O)N3CCOCC3)cc2)n1	inconclusive: 105%
CC1CCN(C(=S)SCc2nc(N)nc(Nc3ccccc3)n2)CC1	inconclusive: 109%
COc1ccc(C2C(C(=O)Nc3cc(OC)c(OC)c(OC)c3)c3ccccc3C(=O)N2C)cc1OC (stereo not drawn)	inactive: 105%
CCN(CC)S(=O)(=O)c1ccc(-c2csc(C)n2)s1	inconclusive: 99.7%
CC1Oc2ccccc2C=C1/C=N\NC(=O)c1cccnc1 (stereo not drawn)	inconclusive: 92.9%
N#CCCn1cc(/C=N/O)c(-c2cccc([N+](=O)[O-])c2)n1	inconclusive: 121%
O=C(O)Cc1nn(Cc2ccc(Cl)cc2)c(=O)c2ccccc12	inactive: 99.6%
CN1C=CC=C/C1=C1/N=C(c2ccccc2)OC1=O	inconclusive: 111%
COC(=O)[C@H](Cc1ccccc1)NC(=O)NCc1ccc(C)cc1	inconclusive: 110%
c1ccc(CSc2nnc3ccc(-c4cccs4)nn23)nc1	inconclusive: 107%
CC(C)(C)c1cc(C(=O)NC2CC2)n(Cc2ccc(F)cc2)n1	inconclusive: 111%
Cc1ccc(C(=O)NCC(c2ccc(F)cc2)N2CCOCC2)cc1 (stereo not drawn)	inconclusive: 115%
CCc1ccc(C2=NN(C(C)=O)C(c3ccco3)C2)cc1 (stereo not drawn)	inconclusive: 97.5%
Cc1ccccc1NC(=S)N/N=C/c1ccc(O)cc1O	inconclusive: 76.9%
COC(=O)COc1ccc2occ(C(C)=O)c2c1	inactive: 104%
Cc1ccc(CNC(=O)C2CC(c3cc(C(F)(F)F)cc(C(F)(F)F)c3)=NO2)o1 (stereo not drawn)	inconclusive: 70.1%
Cc1ccccc1SC1CCN(Cc2nc(C3CC3)no2)CC1	inactive: 99.2%
CCc1n[nH]c(=S)n1/N=C/c1cc(Br)c(O)c(OC)c1	inconclusive: 73.2%
N/C(CSc1ccc(Cl)cc1)=N\S(=O)(=O)c1ccc(Cl)cc1	inconclusive: 38.6%
COc1cc(C(=O)N=c2sc3ccccc3n2C)cc(OC)c1OC	inconclusive: 86.1%
CCc1c(C(=O)NNC(=S)NC2CCCCC2)csc1C	inconclusive: 124%

Structure (SMILES)	binding response (% of control)
CCC1CCCCN1C(=O)COc1c(Br)cc(Br)c2cccnc12 (stereo not drawn)	inactive: 99.6%
CSc1n[nH]c(=O)n1-c1cccc(Cl)c1	inconclusive: 76.4%
CCN(CC)CC(=O)N1c2ccccc2Oc2c(c(=O)n(C)c(=O)n2C)C1c1cccc([N+](=O)[O-])c1 (stereo not drawn)	inconclusive: 73%
CCn1c(=N)n(CC(=O)c2ccc(Br)s2)c2ccccc21	inconclusive: 108%
O=C(CCn1nc(-c2ccc(Cl)cc2)c2ccccc2c1=O)NN1CCOCC1	inconclusive: 119%
Cc1[nH]n(-c2ccccc2)c(=O)c1C(=O)c1ccccc1	inconclusive: 86.2%
C=CCC1(CC=C)CCCN1C(=O)CC1C(=O)NCCN1Cc1cccc(OC)c1OC (stereo not drawn)	inactive: 102%
Cc1onc(-c2ccccc2)c1-c1csc(COc2ccccc2)n1	inconclusive: 142%
CCOC(=O)NC(=O)CSc1nnc(C2CC2)n1Cc1ccco1	inactive: 101%
COc1ccc(/C=N/Nc2nc(-c3cccnc3)nc3ccccc23)cc1OC	inconclusive: 81%
COC(=O)CCCCCCCC(=O)Nc1nnc(C(F)(F)F)s1	inconclusive: 111%
CN1CCN(c2ccc(CNS(=O)(=O)c3ccc(Cl)cc3)cc2)CC1	inconclusive: -62.8%
CCOc1ccccc1NC(=S)N(CCOC)C1CCN(C(C)=O)CC1	inconclusive: 84.9%
C=CCn1c(SCC(=O)N(C)C)nc2cc(C(=O)O)ccc2c1=O	inconclusive: 91.1%
CCc1ccc2nc(Nc3ncc(C(C)=O)c(C)n3)nc(C)c2c1	inconclusive: 76.1%
Nc1ccc(NC(=O)Nc2ccc(N)cc2)cc1	inconclusive: 50.7%
CN1CCN(C(=O)c2cnn3c(C(F)(F)F)cc(-c4cccs4)nc23)CC1	inactive: 98.7%
CCNS(=O)(=O)c1ccc(CCC(=O)NCc2ccccc2)cc1	inactive: 104%
O=C(Cc1c(Sc2ccccc2)c2ccccc2n1Cc1ccccc1)NCCO	inactive: 98.8%
Fc1ccc(-c2n[nH]c(=S)c3ccccc23)cc1	inactive: 100%
CCCCOC(=O)/C=C\C(=O)NC(N)=O	inconclusive: 91.6%
CCOC(=O)CCCNC(=O)CCNC(=O)c1ccc(OCCC(C)C)cc1	inconclusive: 105%
CCCn1nc(NC(=O)c2cccs2)c2cc3ccc(C)cc3nc21	inconclusive: 96%
O=C1CC(c2ccccc2)=NN1c1nc(-c2ccccc2)cs1	inconclusive: 96%

Structure (SMILES)	binding response (% of control)
O=C(Nc1cccc(Cl)c1)NC1CC2CCC(C1)N2Cc1cccs1 (stereo not drawn)	inactive: 103%
CCCCCc1nc2c(c3c1CCCC3)CCCC2	inconclusive: 80.7%
COc1ccccc1N/C(N)=N/c1nc(C)cc(C)n1	inconclusive: 143%
Cc1ccc(-n2c(CCc3ccccc3)nnc2SCC(=O)NCc2ccccc2)cc1C	inactive: 98.9%
CCN1CN=C(NS(=O)(=O)c2ccc(C)cc2)NC1	inactive: 104%
Cc1cc(C)n(-c2ncnc3sc4c(c23)CCCC4)n1	inactive: 95.2%
Cn1nc(C(=O)Nc2nc3ccccc3[nH]2)ccc1=O	inactive: 99.3%
Cn1c(=N)n(CC(=O)c2ccccc2)c2ccccc21	inconclusive: 402%
Cc1ccc(S(=O)(=O)Nc2ccccc2C=Nc2cccc(C)c2C)cc1	inactive: 93.2%
NC(=O)COc1ccc(Nc2nnc(-c3ccc(O)cc3)c3ccccc23)cc1	inconclusive: 82.1%
O=C(NNC(=O)C1CC2CCC1C2)c1sc2ccccc2c1Cl (stereo not drawn)	active: 166% [activator]
COc1ccc(/C=N/N=C2/CC(C)(C)Cc3n[nH]c(=O)cc32)cc1	inconclusive: 120%
COc1ccc2occ(C(=O)c3ccccc3)c2c1	inconclusive: 98.5%
O=C(Cn1cc(C(F)(F)F)ccc1=O)N/N=C/c1ccccc1	inconclusive: 121%
Cc1ccc(NC(=O)CN(C)CC(=O)Nc2ccccc2-c2ccccc2)cc1	inconclusive: 65.9%
O=C(CN1CCCC1)NCC(=O)Nc1ccc(F)cc1	inactive: 107%
COc1ccc(C(=O)NCc2ccc3[nH]c(C)cc3c2)cc1OC	inactive: 99.2%
Nc1ccc(S(=O)(=O)O)cn1	inconclusive: 119% and inconclusive: 133%
Cc1nc(C(=O)NNC(=O)c2ccc(Cl)cc2)cs1	inconclusive: 103%
COc1cc(OC)cc(C(=O)N2CCN(C(=O)COc3ccc4ccccc4c3)CC2)c1	inactive: 93.6%
O=C(NN=C1CCCC1)c1ccccc1OCc1ccc(Cl)cc1	inactive: 107%
N#Cc1ccc(OCc2noc(-c3ccsc3)n2)cc1	inconclusive: 132%
O=C(O)CCCCCN1C(=O)/C(=C\c2ccc(-c3ccc(Cl)cc3)o2)SC1=S	inconclusive: 99.4%
CCn1c(CN2C(=O)CSc3ccccc32)n[nH]c1=S	inconclusive: 203%

Grouped by structure, the compounds so far with a COOH group (3)
Structure (SMILES)	binding response (% of control)
O=C(O)Cc1nn(Cc2ccc(Cl)cc2)c(=O)c2ccccc12	inactive: 99.6%
C=CCn1c(SCC(=O)N(C)C)nc2cc(C(=O)O)ccc2c1=O	inconclusive: 91.1%
O=C(O)CCCCCN1C(=O)/C(=C\c2ccc(-c3ccc(Cl)cc3)o2)SC1=S	inconclusive: 99.4%

Next results

Structure (SMILES)	binding response (% of control)
CCOC(=O)/C(C#N)=C1\SS/C(=C(/C#N)C(=O)OCC)S1	inconclusive: 72.2%
O=C(N/N=C/c1ccc2cccnc2c1)c1nc2ccccc2c(=O)[nH]1	inconclusive: 480%
CN(C(=O)CO/N=C/c1ccc(OC(F)F)cc1)C1CCS(=O)(=O)C1 (stereo not drawn)	inactive: 98.5%
Cc1cccc2nc(Cn3c(=O)n(CCC(=O)NCc4ccco4)c(=O)c4sccc43)cc(=O)n12	inactive: 99.3%
COC(=O)CCCC1=CC2=CC(=O)C(C)(OC(=O)c3cccs3)C(=O)C2=CN1C1CCCCC1 (stereo not drawn)	inconclusive: 79.6%
COc1cc(/C=N/Nc2ccc(C(=O)O)cc2)cc(OC)c1OC	inconclusive: 84.5%
COc1cc(OC)cc(C(=O)N[C@H](C(=O)OCC(=O)Nc2ccc(OC)c(OC)c2)C(C)C)c1	inconclusive: 63.7%
CC1CCC2(CC1)NC(=O)N(CC(=O)Nc1ccc3c(c1)CCC3)C2=O (stereo not drawn)	inconclusive: 115%
O=C(Nn1c(C2CCCCC2)nc2ccccc2c1=O)c1ccc([N+](=O)[O-])cc1	inactive: 102%
NC(=S)N/N=C/c1cn(-c2ccccc2)nc1-c1cccnc1	inconclusive: 101%
Cc1ccc(/C(=N/Nc2nc3ccccc3s2)C2=C(O)c3ccccc3C2=O)cc1	inactive: 103%
CN(c1ccccc1)S(=O)(=O)c1ccc(C(=O)OCC(=O)NC(N)=O)cc1	inconclusive: 114%
NC(=S)N=Nc1c(O)[nH]c2c(Br)cc(Br)cc12	inconclusive: 58.4%
OC1(c2ccccc2)Cc2cccc[n+]2C1c1ccccc1 (stereo not drawn)	inconclusive: 106%
CCCCOC(=O)c1ccc(N=Nc2c(C)c(C#N)c(O)[nH]c2=O)cc1	inconclusive: 94.9%
CCc1nnc(SCc2ccc(C(=O)OC)o2)n1N	inactive: 99.8%
CC12CN3CC(C)(CN(C1)C3c1ccc3c(c1)OCO3)C2O (stereo not drawn)	inconclusive: 82.6%
O=C(CNC(=O)c1cccc(F)c1)OCC(=O)N1CCN(C(=O)c2ccco2)CC1	inconclusive: 140%
Cc1oc(C(C)(C)C)cc1C(=O)N1CCN(c2ncccc2C(F)(F)F)CC1	inconclusive: 43.4%
O=C1C=C(N2CCOCC2)C2(CCCCC2)O1	inactive: 110%
O=C(c1cc(-c2ccco2)nc2ccccc12)N1CCN(c2ccc(F)cc2)CC1	inactive: 93.5%
